# Reference: PMC7862700
# The entries are a selection whose mix differs from that of the whole data set. At the low end of the ranking the order means little.
# Columns and labels:
# Test in all cases: DAPPL (digital affinity profiling via proximity ligation, sequencing)
# Details in all cases: 10 mM Tris-HCl pH 7.5, 50 mM NaCl, 1 mM DTT, 4% glycerol, room temperature, 30 min; GST-TFs on glutathione beads, 16-mer random dsDNA library, 0.1% …; high values mean tight binding; double strand, one strand shown; scale: fold enrichment (6-mer frequency, TF over GST control)
# ELK1 = target: T1, ELK1 (UniProt P19419)
# T1 sequence: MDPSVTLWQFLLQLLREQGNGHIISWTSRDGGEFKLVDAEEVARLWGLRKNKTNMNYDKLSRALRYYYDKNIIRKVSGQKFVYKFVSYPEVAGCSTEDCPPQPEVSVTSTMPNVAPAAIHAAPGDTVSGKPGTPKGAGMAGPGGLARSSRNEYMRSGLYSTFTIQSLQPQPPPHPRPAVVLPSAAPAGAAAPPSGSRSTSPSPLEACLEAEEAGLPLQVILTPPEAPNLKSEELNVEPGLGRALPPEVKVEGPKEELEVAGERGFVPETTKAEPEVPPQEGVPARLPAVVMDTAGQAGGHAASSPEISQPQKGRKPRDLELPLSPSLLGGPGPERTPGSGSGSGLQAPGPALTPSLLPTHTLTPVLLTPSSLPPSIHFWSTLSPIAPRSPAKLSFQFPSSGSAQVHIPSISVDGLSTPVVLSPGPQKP
# SPIC = target: T2, SPIC (UniProt Q8N5J4)
# T2 sequence: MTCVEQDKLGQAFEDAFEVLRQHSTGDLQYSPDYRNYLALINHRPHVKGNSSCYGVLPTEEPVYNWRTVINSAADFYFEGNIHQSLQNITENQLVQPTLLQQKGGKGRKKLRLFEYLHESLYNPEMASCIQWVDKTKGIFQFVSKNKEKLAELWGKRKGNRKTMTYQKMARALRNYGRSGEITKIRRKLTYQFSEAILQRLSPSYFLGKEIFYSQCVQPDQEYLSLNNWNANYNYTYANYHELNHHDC
# ETS2 = target: T3, ETS2 (UniProt P15036)
# T3 sequence: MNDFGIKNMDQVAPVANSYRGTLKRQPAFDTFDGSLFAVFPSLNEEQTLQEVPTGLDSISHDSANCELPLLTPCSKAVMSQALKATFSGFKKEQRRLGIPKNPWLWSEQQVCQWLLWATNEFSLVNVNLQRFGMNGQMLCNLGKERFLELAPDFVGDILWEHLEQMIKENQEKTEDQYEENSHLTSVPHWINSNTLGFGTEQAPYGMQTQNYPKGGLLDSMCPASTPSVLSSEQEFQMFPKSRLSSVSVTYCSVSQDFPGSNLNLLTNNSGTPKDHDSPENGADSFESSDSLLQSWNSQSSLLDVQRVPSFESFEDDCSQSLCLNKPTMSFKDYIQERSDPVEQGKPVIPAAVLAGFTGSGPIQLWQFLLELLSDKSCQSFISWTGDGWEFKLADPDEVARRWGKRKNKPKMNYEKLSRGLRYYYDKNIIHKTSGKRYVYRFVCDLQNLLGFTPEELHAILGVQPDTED
# ETV3 = target: T4, ETV3 (UniProt P41162-2)
# T4 sequence: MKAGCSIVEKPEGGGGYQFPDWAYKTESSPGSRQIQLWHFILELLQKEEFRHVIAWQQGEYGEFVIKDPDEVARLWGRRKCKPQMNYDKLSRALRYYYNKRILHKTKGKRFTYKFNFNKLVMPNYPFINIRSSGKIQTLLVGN
# ELK3 = target: T5, ELK3 (UniProt P41970)
# T5 sequence: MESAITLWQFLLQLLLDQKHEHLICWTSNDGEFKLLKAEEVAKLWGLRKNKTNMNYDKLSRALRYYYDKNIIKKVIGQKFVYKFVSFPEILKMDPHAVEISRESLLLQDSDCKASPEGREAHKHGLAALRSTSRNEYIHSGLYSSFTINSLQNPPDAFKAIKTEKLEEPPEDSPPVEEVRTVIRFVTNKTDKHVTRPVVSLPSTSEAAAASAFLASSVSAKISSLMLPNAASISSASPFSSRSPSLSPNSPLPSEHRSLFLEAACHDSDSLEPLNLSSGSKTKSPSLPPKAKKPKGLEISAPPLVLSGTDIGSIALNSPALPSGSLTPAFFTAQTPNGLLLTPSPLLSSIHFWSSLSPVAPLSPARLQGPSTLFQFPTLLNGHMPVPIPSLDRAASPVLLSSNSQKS
Sequence,binding signal (ELK1),binding signal (SPIC),binding signal (ETS2),binding signal (ETV3),binding signal (ELK3)
TTCGAC,1.51,1.35,1.42,–,–
GCCTCT,1.38,1.21,–,–,–
TAGAAA,1.03,1.12,–,–,–
CTGACA,1.18,1.03,–,–,–
GATCCA,1.08,0.952,1.09,1.05,–
GCGCCC,1.1,1.01,1.05,–,–
AGTTAT,0.938,0.944,0.919,0.902,–
CACCAA,1.16,1.12,0.988,–,–
GTATAC,1.3,1.2,1.32,–,–
ACGCGG,0.969,0.975,0.993,–,–
GTTTGT,0.968,1.01,0.965,–,–
TATGAT,1.18,1.29,1.17,–,–
CTCGCA,1.25,1.43,1.35,–,–
CTGTAT,1.28,1.51,1.22,–,–
AGCTGC,1.16,0.932,–,–,–
GGCTTA,0.967,0.944,1.09,1.05,–
GTAAAT,1.09,1.09,1.18,–,–
CAAGCT,0.99,0.918,0.952,–,–
GGGTAT,0.946,0.96,1.02,0.943,–
GCCTGC,1.13,0.958,–,–,–

Sequence,binding signal (ELK1),binding signal (SPIC),binding signal (ETS2),binding signal (ETV3),binding signal (ELK3)
GCTAAC,1.1,0.959,0.992,–,–
CCATGG,1.05,0.876,0.861,0.962,–
GCCTAC,1.17,1.37,1.23,1.3,–
AGGCTA,0.98,0.979,0.971,0.909,–
TAACTT,1.39,1.56,1.38,–,–
TCATCG,0.955,1.05,0.949,0.928,–
AGCTCG,0.975,0.994,1.01,0.946,–
TGAACG,0.96,0.974,0.997,0.982,–
TAAAGG,1.03,1.11,0.988,–,–
GGTTCT,1.02,0.996,0.907,–,–
ATACTT,1.6,1.58,–,–,–
CCAGCT,0.945,0.952,0.987,1,–
CCTGGC,0.977,0.893,0.996,–,–
ATCAAA,1.05,0.959,–,–,–
TTCGCA,1.36,1.32,1.18,1.34,–
ATTGTC,1.07,0.985,1.17,–,–
ACTTCT,1.53,1.47,1.4,–,–
CGCGCA,0.944,1.01,0.953,0.929,1.01
GATCGA,0.841,0.853,0.783,0.842,0.768

# Full records from above.
# TCATCG reads binding signal (ELK1) = 0.955; binding signal (SPIC) = 1.05; binding signal (ETS2) = 0.949; binding signal (ETV3) = 0.928
# CCAGCT reads binding signal (ELK1) = 0.945; binding signal (SPIC) = 0.952; binding signal (ETS2) = 0.987; binding signal (ETV3) = 1
